These results are taken from PMC4858687.

Chains of the proteins cited; added tags and fusions are not shown.
UniProt Q9UEE9: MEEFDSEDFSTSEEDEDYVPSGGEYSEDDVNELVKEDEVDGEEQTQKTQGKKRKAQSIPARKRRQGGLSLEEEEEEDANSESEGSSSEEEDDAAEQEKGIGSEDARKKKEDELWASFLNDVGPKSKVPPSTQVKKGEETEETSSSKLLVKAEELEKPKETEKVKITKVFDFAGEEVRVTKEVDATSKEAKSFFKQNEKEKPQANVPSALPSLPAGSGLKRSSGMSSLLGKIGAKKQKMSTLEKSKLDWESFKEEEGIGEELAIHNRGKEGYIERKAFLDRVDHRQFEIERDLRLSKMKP

No constants are given. Whether binding was seen depends on the method and setting. Binding seen in cells or lysates may run through a third protein. Some binding calls cover weakened binding; strength is not graded here.

This experiment deals with GST::CFDP1 (human) (UniProt Q9UEE9). Briefly: pull-down; GST or GST::CFDP1 bound to glutathione-agarose beads, incubated overnight at 4 °C with extracts of HeLa cells transfected with pcDNA3.1/nV5-DEST::CFDP1 in 20 mM Tris pH 8, 150 mM NaCl, 0.5% Nonidet P-40, 1 mM EDTA; five washes; Western blotting (anti-V5); only the target purified.

Regarding V5::CFDP1 (from UniProt Q9UEE9 1-299), the binding entry is listed as “binds”.
